This is one part of the list.
Experiments:
Assay in all cases: log2 fold change, soluble protein after heating vs DMSO (PISA); higher = thermal stabilisation; K562 cells, 10 uM, 30 min; active = over 0.2 and 3.5 SD of the protein, either way, in both replicates (recomputed)
[1] = compound: CC[C@@H]1C(=O)N(C)c2cnc(Nc3ccc(C(=O)NC4CCN(C)CC4)cc3OC)nc2N1C1CCCC1
Outline: (§1)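 Thermal stability values are relative to control samples and come from duplicates. They are expressed as log2 fold changes. For measurement, K562 cells (2×10^6 cells/mL) received 10 μM compound for 30 min, and aliquots were heated for 3 min over 48°C-58°C, pooled, and extracted at 4°C in PBS with 0.5% NP-40. Soluble protein, the supernatant after 21,000xg for 90 min, was quantified by TMTpro 16plex LC-MS/MS with equalised channel sums.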

Amino acid sequences for entries named in this document (tags omitted). A change or cut given only in a name is not applied to a line headed by its entry.
UniProt Q13523: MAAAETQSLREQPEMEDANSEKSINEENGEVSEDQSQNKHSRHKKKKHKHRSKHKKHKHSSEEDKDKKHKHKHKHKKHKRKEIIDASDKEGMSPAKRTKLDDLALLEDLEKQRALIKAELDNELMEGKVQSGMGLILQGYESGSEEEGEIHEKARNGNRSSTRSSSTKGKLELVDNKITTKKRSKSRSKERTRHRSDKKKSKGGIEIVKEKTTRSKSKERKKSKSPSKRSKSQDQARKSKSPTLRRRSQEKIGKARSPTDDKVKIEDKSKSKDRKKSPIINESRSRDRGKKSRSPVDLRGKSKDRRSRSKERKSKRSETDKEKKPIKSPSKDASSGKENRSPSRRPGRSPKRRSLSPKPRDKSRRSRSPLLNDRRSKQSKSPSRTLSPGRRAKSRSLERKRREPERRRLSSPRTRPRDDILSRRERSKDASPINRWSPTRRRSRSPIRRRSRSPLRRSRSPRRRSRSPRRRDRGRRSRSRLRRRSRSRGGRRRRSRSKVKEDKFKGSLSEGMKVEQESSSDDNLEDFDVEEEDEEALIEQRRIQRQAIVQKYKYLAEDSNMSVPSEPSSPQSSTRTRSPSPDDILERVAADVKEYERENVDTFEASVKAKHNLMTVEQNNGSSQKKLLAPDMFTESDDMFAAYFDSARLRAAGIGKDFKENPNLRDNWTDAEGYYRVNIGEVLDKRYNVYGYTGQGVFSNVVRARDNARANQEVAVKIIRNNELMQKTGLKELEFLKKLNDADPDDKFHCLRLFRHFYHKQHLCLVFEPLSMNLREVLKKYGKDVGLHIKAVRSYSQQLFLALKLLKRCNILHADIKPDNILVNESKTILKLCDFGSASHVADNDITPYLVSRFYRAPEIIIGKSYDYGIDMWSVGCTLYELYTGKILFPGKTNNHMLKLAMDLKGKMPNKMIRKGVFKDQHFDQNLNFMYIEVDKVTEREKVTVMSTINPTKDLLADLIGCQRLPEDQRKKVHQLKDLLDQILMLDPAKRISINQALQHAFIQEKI
UniProt Q96C90: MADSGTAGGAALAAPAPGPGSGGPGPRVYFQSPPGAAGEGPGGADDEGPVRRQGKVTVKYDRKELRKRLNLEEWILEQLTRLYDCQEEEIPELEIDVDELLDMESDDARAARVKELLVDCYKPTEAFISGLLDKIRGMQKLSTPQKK
UniProt Q04759: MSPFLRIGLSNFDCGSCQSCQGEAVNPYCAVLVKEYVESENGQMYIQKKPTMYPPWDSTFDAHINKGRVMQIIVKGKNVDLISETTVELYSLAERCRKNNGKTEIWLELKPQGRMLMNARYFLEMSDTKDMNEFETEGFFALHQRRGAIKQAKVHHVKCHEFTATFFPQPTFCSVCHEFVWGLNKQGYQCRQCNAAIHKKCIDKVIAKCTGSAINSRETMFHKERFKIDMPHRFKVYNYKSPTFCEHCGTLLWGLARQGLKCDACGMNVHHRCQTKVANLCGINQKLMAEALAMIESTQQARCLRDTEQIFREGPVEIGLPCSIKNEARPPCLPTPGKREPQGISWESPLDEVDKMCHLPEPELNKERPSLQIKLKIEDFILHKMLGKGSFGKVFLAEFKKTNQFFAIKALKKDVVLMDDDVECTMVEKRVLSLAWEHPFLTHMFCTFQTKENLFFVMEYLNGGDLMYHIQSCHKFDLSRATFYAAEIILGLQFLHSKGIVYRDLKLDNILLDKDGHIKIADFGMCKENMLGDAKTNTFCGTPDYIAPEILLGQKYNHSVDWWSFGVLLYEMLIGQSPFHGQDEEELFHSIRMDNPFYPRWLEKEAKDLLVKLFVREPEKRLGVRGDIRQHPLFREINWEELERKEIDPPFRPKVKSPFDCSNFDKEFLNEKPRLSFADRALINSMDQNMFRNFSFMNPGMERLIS
UniProt Q96A00: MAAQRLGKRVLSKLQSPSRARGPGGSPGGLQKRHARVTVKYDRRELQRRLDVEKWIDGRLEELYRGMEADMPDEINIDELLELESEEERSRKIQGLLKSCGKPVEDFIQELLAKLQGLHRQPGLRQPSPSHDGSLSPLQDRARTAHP
UniProt Q9Y478: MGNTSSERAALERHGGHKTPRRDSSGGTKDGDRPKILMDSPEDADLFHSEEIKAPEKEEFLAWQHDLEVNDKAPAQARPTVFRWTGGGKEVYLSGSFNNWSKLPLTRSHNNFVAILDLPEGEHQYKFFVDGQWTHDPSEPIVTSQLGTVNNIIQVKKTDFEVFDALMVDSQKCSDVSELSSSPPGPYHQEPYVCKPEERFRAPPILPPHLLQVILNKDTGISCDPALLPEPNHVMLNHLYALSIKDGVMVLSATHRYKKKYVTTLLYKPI
UniProt Q8WWY3: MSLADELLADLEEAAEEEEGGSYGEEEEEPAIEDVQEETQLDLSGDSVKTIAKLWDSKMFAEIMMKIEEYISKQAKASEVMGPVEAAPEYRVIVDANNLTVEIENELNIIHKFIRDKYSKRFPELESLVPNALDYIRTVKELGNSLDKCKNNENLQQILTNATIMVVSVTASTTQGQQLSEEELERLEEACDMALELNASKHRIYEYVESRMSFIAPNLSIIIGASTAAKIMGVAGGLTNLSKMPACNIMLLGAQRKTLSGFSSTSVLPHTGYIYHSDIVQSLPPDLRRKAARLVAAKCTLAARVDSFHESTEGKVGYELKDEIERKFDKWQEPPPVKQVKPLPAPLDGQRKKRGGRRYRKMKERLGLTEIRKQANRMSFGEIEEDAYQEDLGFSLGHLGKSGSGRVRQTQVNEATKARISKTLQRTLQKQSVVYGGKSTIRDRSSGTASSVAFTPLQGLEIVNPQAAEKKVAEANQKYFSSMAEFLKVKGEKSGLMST
UniProt Q15172: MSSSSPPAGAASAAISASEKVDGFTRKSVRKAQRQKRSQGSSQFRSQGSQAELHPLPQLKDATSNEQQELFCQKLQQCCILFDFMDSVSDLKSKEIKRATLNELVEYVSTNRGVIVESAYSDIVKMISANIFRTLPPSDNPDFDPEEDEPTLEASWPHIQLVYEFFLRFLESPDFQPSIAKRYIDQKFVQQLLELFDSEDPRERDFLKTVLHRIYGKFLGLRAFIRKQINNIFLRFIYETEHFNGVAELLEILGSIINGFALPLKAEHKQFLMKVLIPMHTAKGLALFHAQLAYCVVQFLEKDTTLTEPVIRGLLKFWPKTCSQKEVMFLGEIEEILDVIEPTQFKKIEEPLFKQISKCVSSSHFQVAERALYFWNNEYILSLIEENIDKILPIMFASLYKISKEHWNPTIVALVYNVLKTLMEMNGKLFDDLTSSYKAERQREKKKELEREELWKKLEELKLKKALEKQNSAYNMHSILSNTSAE
UniProt O75569: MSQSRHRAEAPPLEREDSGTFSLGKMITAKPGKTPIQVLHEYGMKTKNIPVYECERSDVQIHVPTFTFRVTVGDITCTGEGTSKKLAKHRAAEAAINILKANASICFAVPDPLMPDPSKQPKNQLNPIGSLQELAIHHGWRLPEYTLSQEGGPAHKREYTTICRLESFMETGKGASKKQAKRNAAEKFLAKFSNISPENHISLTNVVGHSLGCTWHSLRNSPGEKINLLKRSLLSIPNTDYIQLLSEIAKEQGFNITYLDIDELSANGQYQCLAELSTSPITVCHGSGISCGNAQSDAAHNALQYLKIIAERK
UniProt P50897: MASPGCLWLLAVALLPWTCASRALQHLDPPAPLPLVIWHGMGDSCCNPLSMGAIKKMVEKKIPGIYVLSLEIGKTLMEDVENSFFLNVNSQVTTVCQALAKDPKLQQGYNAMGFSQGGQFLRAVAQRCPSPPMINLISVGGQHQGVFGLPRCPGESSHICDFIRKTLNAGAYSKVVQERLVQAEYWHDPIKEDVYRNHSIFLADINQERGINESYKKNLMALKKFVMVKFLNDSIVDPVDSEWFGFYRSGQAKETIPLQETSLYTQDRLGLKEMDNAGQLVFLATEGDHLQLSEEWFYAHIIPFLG
UniProt O43395: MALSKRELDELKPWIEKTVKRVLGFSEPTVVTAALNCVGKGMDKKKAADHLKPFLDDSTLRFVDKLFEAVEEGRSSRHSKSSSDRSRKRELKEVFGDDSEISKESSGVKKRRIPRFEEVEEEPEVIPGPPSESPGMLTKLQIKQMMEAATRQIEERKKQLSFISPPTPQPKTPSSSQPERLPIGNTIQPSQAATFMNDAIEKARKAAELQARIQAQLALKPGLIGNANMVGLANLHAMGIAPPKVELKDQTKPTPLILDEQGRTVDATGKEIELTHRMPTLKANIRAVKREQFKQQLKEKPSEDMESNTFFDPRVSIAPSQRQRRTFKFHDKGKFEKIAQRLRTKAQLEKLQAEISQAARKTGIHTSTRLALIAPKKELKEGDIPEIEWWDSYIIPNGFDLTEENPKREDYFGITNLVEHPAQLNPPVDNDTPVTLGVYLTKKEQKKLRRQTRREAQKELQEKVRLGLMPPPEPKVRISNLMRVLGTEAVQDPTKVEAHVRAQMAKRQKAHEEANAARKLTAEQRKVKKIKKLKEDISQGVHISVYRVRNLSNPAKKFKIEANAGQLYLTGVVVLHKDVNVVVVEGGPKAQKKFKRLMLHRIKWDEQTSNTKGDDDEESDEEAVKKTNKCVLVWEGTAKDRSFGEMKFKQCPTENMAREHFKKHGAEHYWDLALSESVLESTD
UniProt K7ELL7: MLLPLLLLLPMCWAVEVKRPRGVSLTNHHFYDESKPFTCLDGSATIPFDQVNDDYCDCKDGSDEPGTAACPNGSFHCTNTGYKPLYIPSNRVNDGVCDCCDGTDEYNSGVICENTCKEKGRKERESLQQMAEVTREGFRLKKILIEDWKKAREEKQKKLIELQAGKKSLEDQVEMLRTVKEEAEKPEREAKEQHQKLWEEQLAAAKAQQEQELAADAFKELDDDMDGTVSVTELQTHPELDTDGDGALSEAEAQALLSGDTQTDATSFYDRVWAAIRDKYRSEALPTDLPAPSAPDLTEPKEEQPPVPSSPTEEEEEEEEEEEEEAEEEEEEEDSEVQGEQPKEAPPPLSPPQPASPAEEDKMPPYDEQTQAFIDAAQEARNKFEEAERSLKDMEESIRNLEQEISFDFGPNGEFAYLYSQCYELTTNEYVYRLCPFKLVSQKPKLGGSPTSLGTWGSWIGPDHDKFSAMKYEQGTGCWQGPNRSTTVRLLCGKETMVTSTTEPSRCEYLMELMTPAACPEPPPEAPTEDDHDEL
UniProt Q9NVM4: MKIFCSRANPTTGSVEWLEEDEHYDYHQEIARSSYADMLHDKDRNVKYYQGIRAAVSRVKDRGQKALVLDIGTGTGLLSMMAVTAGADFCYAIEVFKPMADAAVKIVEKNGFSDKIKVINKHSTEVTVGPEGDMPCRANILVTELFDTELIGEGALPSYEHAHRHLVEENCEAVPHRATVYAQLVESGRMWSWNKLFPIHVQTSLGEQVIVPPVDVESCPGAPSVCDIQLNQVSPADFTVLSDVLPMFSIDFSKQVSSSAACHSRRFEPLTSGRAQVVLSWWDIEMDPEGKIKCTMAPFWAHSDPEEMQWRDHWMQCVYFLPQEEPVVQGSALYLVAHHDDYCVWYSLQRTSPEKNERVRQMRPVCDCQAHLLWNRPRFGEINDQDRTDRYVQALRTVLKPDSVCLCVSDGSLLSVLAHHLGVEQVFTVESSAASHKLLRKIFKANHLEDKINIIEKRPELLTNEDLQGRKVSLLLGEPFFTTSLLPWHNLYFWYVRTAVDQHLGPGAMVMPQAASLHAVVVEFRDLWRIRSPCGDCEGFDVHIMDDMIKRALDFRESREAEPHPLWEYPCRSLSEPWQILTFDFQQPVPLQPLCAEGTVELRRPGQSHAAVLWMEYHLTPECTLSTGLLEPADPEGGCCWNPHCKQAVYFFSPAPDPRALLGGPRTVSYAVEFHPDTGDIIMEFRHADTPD

volasertib = compound: CC[C@@H]1C(=O)N(C)c2cnc(Nc3ccc(C(=O)N[C@H]4CC[C@H](N5CCN(CC6CC6)CC5)CC4)cc3OC)nc2N1C(C)C [volasertib]
Outline: as §1

[2] = compound: CC[C@H](C)N1C=C(C2=C(C=C(C=C21)C3=CN=C(C=C3)N4CCNCC4)C(=O)NCC5=C(C=C(NC5=O)C)C)C
Outline: as §1

epoxomicin = compound: CC[C@H](C)[C@@H](C(=O)N[C@@H]([C@@H](C)O)C(=O)N[C@@H](CC(C)C)C(=O)[C@]1(CO1)C)NC(=O)[C@H]([C@@H](C)CC)N(C)C(=O)C [epoxomicin]
Outline: as §1

[3] = compound: CCn1cc(-c2ccnc3[nH]c(-c4cccc(CN(C)C)c4)cc23)c(-c2ccc(NC(=O)N(C)C)cc2)n1
Outline: as §1

[4] = compound: CN(C)CC(=O)Nc1ccc2[nH]c(=O)c3ccccc3c2c1
Outline: as §1

[5] = compound: CN1C2=C(C3=C1C(=O)N(N=C3)CC4=CC(=CC=C4)N)SC(=C2)S(=O)C
Outline: as §1

[6] = compound: CN1CCC(CNc2ccc3ncc(-c4cccc(OC(F)(F)F)c4)n3n2)CC1
Outline: as §1

saracatinib = compound: CN1CCN(CCOc2cc(OC3CCOCC3)c3c(Nc4c(Cl)ccc5c4OCO5)ncnc3c2)CC1 [saracatinib]
Outline: as §1

sotrastaurin = compound: CN1CCN(c2nc(C3=C(c4c[nH]c5ccccc45)C(=O)NC3=O)c3ccccc3n2)CC1 [sotrastaurin]
Outline: as §1

Tubastatin A = compound: CN1CCc2c(c3ccccc3n2Cc2ccc(C(=O)NO)cc2)C1 [Tubastatin A]
Outline: as §1

[7] = compound: CNC(=O)C1=CC=CC=C1NC2=NC(=NC=C2Cl)NC3=C(C=C(C=C3)N4CCOCC4)OC
Outline: as §1

defactinib = compound: CNC(=O)c1ccc(Nc2ncc(C(F)(F)F)c(NCc3nccnc3N(C)S(C)(=O)=O)n2)cc1 [defactinib]
Outline: as §1

rucaparib = compound: CNCc1ccc(-c2[nH]c3cc(F)cc4c3c2CCNC4=O)cc1 [rucaparib]
Outline: as §1

[8] = compound: CNc1nc(-c2ccc3c(N)n[nH]c3c2)cc(N2C[C@@H](C(=O)NC3CCCCC3)CC[C@H]2C)n1
Outline: as §1

encorafenib = compound: COC(=O)N[C@@H](C)CNc1nccc(-c2cn(C(C)C)nc2-c2cc(Cl)cc(NS(C)(=O)=O)c2F)n1 [encorafenib]
Outline: as §1

[9] = compound: COC(=O)[C@H](CCSC)NC(=O)C1=C(C=C(C=C1)NC[C@H](CS)N)C2=CC=CC=C2
Outline: as §1

[10] = compound: CCn1c(C(=O)N(C2CC2)C2CC2)cc2c3c(ncn3C)c(Nc3cc(C)n(C)n3)nc21
Outline: as §1

rosiglitazone = compound: CN(CCOC1=CC=C(C=C1)C[C@H]2C(=O)NC(=O)S2)C3=CC=CC=N3 (racemic) [rosiglitazone]
Outline: as §1

alvocidib = compound: CN1CC[C@H](c2c(O)cc(O)c3c(=O)cc(-c4ccccc4Cl)oc23)[C@H](O)C1 [alvocidib]
Outline: as §1

Measured: log2 fold change

PRPF4B (UniProt Q13523)
inactive: [1] 0.025 | volasertib -0.17 | [2] 0.027 | epoxomicin -0.174 | [3] 0.104 | [4] -0.049 | [5] 0.081 | [6] 0.019 | saracatinib -0.064 | sotrastaurin -0.047 | Tubastatin A 0.085 | [7] -0.209 | defactinib -0.32 | rucaparib 0.022 | [8] -0.146 | encorafenib 0.02 | [9] 0.046

PPP1R14B (UniProt Q96C90)
inactive: [1] -0.1 | volasertib 0.063 | [2] 0.023 | epoxomicin -0.072 | [10] 0.009 | [4] 0.053 | rosiglitazone -0.008 | [5] -0.06 | saracatinib 0.185 | sotrastaurin 0.103 | alvocidib -0.069 | Tubastatin A 0.16 | [7] -0.072 | defactinib -0.011 | rucaparib -0.127 | [8] 0.34 | encorafenib 0.101 | [9] -0.06

PRKCA (UniProt P17252)
inactive: [1] 0.073 | volasertib -0.179 | [2] 0.025 | epoxomicin -0.018 | [3] 0 | [4] 0.017 | [5] -0.15 | [6] -0.29 | saracatinib -0.174 | Tubastatin A 0.018 | [7] 0.026 | defactinib -0.006 | rucaparib 0.039 | [8] 0.308 | encorafenib -0.038 | [9] 0.005
active: sotrastaurin -0.502

PRKCQ (UniProt Q04759)
active: [6] -0.496 | sotrastaurin -0.903
inactive: [1] -0.11 | volasertib -0.17 | [2] 0.031 | epoxomicin 0.001 | [3] -0.047 | [4] 0.021 | [5] -0.014 | saracatinib -0.034 | Tubastatin A 0.017 | [7] -0.047 | defactinib -0.03 | rucaparib 0.003 | [8] 0.002 | encorafenib 0.043 | [9] -0.025

PRKACB isoform 2 (UniProt P22694)
inactive: [1] -0.025 | volasertib -0.031 | [2] 0.004 | epoxomicin -0.033 | [3] -0.009 | [4] -0.048 | [5] -0.042 | [6] -0.022 | saracatinib -0.013 | sotrastaurin -0.119 | Tubastatin A -0.035 | [7] -0.101 | defactinib 0.004 | rucaparib 0.002 | [8] 0.018 | encorafenib 0.011 | [9] 0.022

PRKCD (UniProt Q05655)
active: sotrastaurin -0.256
inactive: [1] 0.036 | volasertib -0.073 | [2] 0.031 | epoxomicin -0.003 | [3] -0.067 | [4] -0.009 | [5] -0.05 | [6] -0.159 | saracatinib -0.026 | Tubastatin A -0.007 | [7] 0.002 | defactinib -0.002 | rucaparib -0.031 | [8] -0.033 | encorafenib -0.029 | [9] -0.024

PPP1R14A (UniProt Q96A00)
inactive: [1] 0.002 | volasertib 0.051 | [2] 0 | epoxomicin 0.058 | [3] -0.067 | [4] -0.04 | [5] -0.027 | [6] -0.091 | saracatinib -0.048 | sotrastaurin -0.027 | Tubastatin A 0 | [7] -0.021 | defactinib -0.012 | rucaparib -0.023 | [8] -0.015 | encorafenib -0.025 | [9] -0.004

2 entries picked at random from those above, as already listed:
PRKCD (UniProt Q05655)
active: sotrastaurin -0.256
inactive: [1] 0.036 | volasertib -0.073 | [2] 0.031 | epoxomicin -0.003 | [3] -0.067 | [4] -0.009 | [5] -0.05 | [6] -0.159 | saracatinib -0.026 | Tubastatin A -0.007 | [7] 0.002 | defactinib -0.002 | rucaparib -0.031 | [8] -0.033 | encorafenib -0.029 | [9] -0.024

PRKCA (UniProt P17252)
inactive: [1] 0.073 | volasertib -0.179 | [2] 0.025 | epoxomicin -0.018 | [3] 0 | [4] 0.017 | [5] -0.15 | [6] -0.29 | saracatinib -0.174 | Tubastatin A 0.018 | [7] 0.026 | defactinib -0.006 | rucaparib 0.039 | [8] 0.308 | encorafenib -0.038 | [9] 0.005
active: sotrastaurin -0.502

Going on with the list.

PRKAB1 (UniProt Q9Y478)
inactive: [1] -0.079 | [2] 0.045 | epoxomicin 0.055 | [3] -0.018 | [4] 0.022 | [5] -0.026 | [6] -0.155 | saracatinib 0.077 | sotrastaurin 0 | Tubastatin A 0.087 | [7] -0.117 | defactinib -0.037 | rucaparib 0.011 | [8] -0.02 | encorafenib 0.028 | [9] -0.021
active: volasertib -0.418

PRKAR1B (UniProt P31321)
active: [6] 0.43
inactive: [1] 0.024 | volasertib -0.054 | [2] -0.067 | epoxomicin -0.063 | [3] 0.12 | [4] -0.001 | [5] 0.127 | saracatinib -0.137 | sotrastaurin -0.02 | Tubastatin A 0.035 | [7] 0.247 | defactinib 0.117 | rucaparib 0.029 | [8] 0.047 | encorafenib 0.056 | [9] -0.067

PRPF31 (UniProt Q8WWY3)
inactive: [1] -0.113 | [2] 0.172 | epoxomicin 0.049 | [3] -0.079 | [4] 0.181 | [5] -0.041 | [6] -0.348 | saracatinib -0.093 | sotrastaurin -0.15 | Tubastatin A 0.144 | [7] -0.033 | rucaparib -0.068 | [8] 0.033 | encorafenib 0.011 | [9] -0.037
active: volasertib -0.548 | defactinib -0.456

PPWD1 (UniProt Q96BP3)
inactive: [1] 0.017 | volasertib -0.026 | [2] 0.018 | epoxomicin 0.003 | [10] -0.005 | [3] -0.037 | [4] 0.043 | rosiglitazone 0.047 | [5] -0.09 | [6] -0.024 | saracatinib 0.004 | sotrastaurin -0.027 | alvocidib -0.022 | Tubastatin A -0.017 | [7] 0.01 | defactinib 0.01 | rucaparib -0.041 | [8] 0.037 | encorafenib 0.004 | [9] -0.014

PPP2R5A (UniProt Q15172)
active: volasertib -0.295 | [6] -0.305
inactive: [1] -0.099 | [2] 0.097 | epoxomicin 0.067 | [3] -0.046 | [4] 0.072 | [5] -0.049 | saracatinib -0.03 | sotrastaurin -0.043 | Tubastatin A 0.042 | [7] 0.01 | defactinib -0.037 | rucaparib 0.053 | [8] 0.032 | encorafenib 0.063 | [9] -0.03

PRKRA (UniProt O75569)
inactive: [1] 0.167 | volasertib 0.016 | [2] -0.072 | epoxomicin -0.224 | [3] 0.214 | [4] -0.104 | rosiglitazone 0.075 | [5] 0.286 | [6] 0.107 | saracatinib -0.149 | sotrastaurin -0.118 | alvocidib 0.245 | Tubastatin A 0.125 | defactinib 0.073 | rucaparib 0.473 | [8] 0.041 | encorafenib 0.164 | [9] -0.061

PPT1 (UniProt P50897)
active: [1] -1.41 | volasertib -1.9 | [6] -0.925
inactive: [2] -0.041 | epoxomicin 0.014 | [3] 0.01 | [4] -0.009 | [5] -0.035 | saracatinib -0.007 | sotrastaurin 0.029 | Tubastatin A -0.038 | [7] 0.024 | defactinib 0.024 | rucaparib 0.047 | [8] -0.019 | encorafenib -0.023 | [9] -0.002

PRPF3 (UniProt O43395)
active: volasertib -0.34
inactive: [1] -0.114 | [2] 0.069 | epoxomicin 0.069 | [3] -0.062 | [4] 0.116 | [5] 0.004 | [6] -0.17 | saracatinib -0.023 | sotrastaurin -0.114 | Tubastatin A 0.07 | [7] -0.021 | defactinib -0.239 | rucaparib -0.041 | [8] -0.001 | encorafenib 0.171 | [9] -0.025

PRKCSH (UniProt K7ELL7)
inactive: [1] 0.084 | volasertib 0.051 | [2] 0.008 | epoxomicin -0.018 | [10] 0.031 | [4] -0.123 | rosiglitazone -0.015 | [5] 0.015 | saracatinib 0.19 | sotrastaurin -0.007 | alvocidib -0.064 | Tubastatin A 0.105 | [7] -0.068 | defactinib 0.014 | rucaparib -0.038 | [8] 0.012 | encorafenib 0 | [9] 0.089

PRMT7 (UniProt Q9NVM4)
active: volasertib -0.461
inactive: [1] -0.074 | [2] 0.04 | epoxomicin -0.036 | [3] -0.077 | [4] 0.032 | [5] 0.022 | [6] -0.176 | saracatinib -0.02 | sotrastaurin -0.124 | Tubastatin A 0.088 | [7] 0.004 | defactinib -0.086 | rucaparib 0.008 | [8] 0.031 | encorafenib 0.112 | [9] -0.04
